Values from PubChem BioAssay AID504774 (Drosophila RNAi Screening Center, 2011).
Test: 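Genes required for cells to withstand methyl methanesulphonate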 (primary screen). Cells: Drosophila Kc167 cells. Reagents: long dsRNA against Drosophila genes, about 0.25 µg dsRNA per well. Timing: about 6 days: 3 days knock-down, then 3 days with or without MMS. Conditions: methyl methanesulphonate 0.004% (w/v) for 3 days after knock-down. Measured: 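ATP-dependent luminescence as a measure of live cells in MMS-exposed wells, quantile normalised within each plate, with replicate values also given as a mean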. Direction: mean viability with MMS and viability with MMS: higher = more surviving cells after MMS.
The deposit covers about 23,000 reagents; this is a random part of those with a known target gene and a result. 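Values are quantile-normalised luminescence on an arbitrary scale; higher means more cells surviving MMS.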

| target gene | amplicon | mean viability with MMS | viability with MMS, replicate 1 | viability with MMS, replicate 2 |
| --- | --- | --- | --- | --- |
| qless | DRSC15103 | 3.39e6 | 3.87e6 | 3.75e6 |
| qless | DRSC15507 | 3.42e6 | 3.85e6 | 3.84e6 |
| CG32221 | DRSC09638 | 3.53e6 | 4.06e6 | 3.95e6 |
| Or49a | DRSC07493 | 3.48e6 | 4.01e6 | 3.93e6 |
| Ziz | DRSC02506 | 3.43e6 | 3.95e6 | 3.83e6 |
| Ziz | DRSC02976 | 3.24e6 | 3.54e6 | 3.64e6 |
| Tsp97E | DRSC16019 | 3.76e6 | 4.43e6 | 4.08e6 |
| Pglym78 | DRSC16787 | 3.66e6 | 4.08e6 | 4.19e6 |
| CG15456 | DRSC20527 | 3.64e6 | 4.03e6 | 4.16e6 |
| CG13361 | DRSC17896 | 3.76e6 | 4.31e6 | 4.16e6 |
| CG12620 | DRSC02177 | 3.46e6 | 3.92e6 | 3.94e6 |
| smg | DRSC11397 | 3.59e6 | 4.16e6 | 4.00e6 |
| CG4907 | DRSC15673 | 3.52e6 | 3.88e6 | 4.10e6 |
| CG17283 | DRSC15219 | 3.40e6 | 3.93e6 | 3.76e6 |
| UQCR-C2 | DRSC10405 | 3.46e6 | 3.91e6 | 3.92e6 |
| CG6040 | DRSC15954 | 3.54e6 | 4.08e6 | 3.95e6 |
| Fadd | DRSC14122 | 3.39e6 | 3.85e6 | 3.88e6 |
| RNaseX25 | DRSC11259 | 3.47e6 | 4.00e6 | 3.87e6 |
| CG4424 | DRSC15576 | 3.54e6 | 4.08e6 | 3.96e6 |
| cal1 | DRSC15725 | 3.58e6 | 4.05e6 | 4.06e6 |
| B52 | DRSC14121 | 3.56e6 | 3.98e6 | 4.12e6 |
| eIF4B | DRSC20983 | 3.54e6 | 4.04e6 | 3.98e6 |
| ck | DRSC03509 | 3.50e6 | 4.09e6 | 3.83e6 |
| ppk15 | DRSC14733 | 3.27e6 | 3.69e6 | 3.70e6 |
| CG13744 | DRSC06415 | 3.55e6 | 4.11e6 | 3.94e6 |
| tow | DRSC10192 | 2.82e6 | 3.46e6 | 3.45e6 |
| tow | DRSC23125 | 3.59e6 | 4.21e6 | 3.95e6 |
| fs(1)h | DRSC18778 | 3.59e6 | 3.96e6 | 4.14e6 |

Sorted by “mean viability with MMS” (descending): 2 of the entries above.
| target gene | amplicon | mean viability with MMS | viability with MMS, replicate 1 | viability with MMS, replicate 2 |
| --- | --- | --- | --- | --- |
| CG6040 | DRSC15954 | 3.54e6 | 4.08e6 | 3.95e6 |
| Fadd | DRSC14122 | 3.39e6 | 3.85e6 | 3.88e6 |
